Consider 21 molecules from patent US11072584B2, “Carbon monoxide releasing norbornenone compounds” (OTAGO INNOVATION LIMITED, priority 2015, dated 2021).

Entries after “also recorded” stand apart in the source; their conditions may differ. Structures can show the parent of a compound that is named as a salt.

The nature of the series: CO release shown by characterisation of reaction byproduct (NMR, mass spectrometry). The format is physicochemical. As to conditions: optimal pH (pH=7.4); byproducts characterised by NMR and mass spectrometry.
For the molecule `CC12C(=O)C(C)(C(c3ccccc3)=C1c1ccccc1)C1([S+]([O-])c3ccccc3)C(=O)N(c3ccccc3)C(=O)C21` (stereo not drawn) [oCOm-5, 3a-Phenylsulfinyl-3a,4,7,7a-tetrahydro-4,7-dimethyl-2,5,6-triphenyl-4,7-methano-1H-isoindole-1,3,8(2H)-trione], the “release of CO with formation of byproduct BP-X” value (from here on “release of CO”) is “release carbon monoxide”.

For the molecule `COCCOCCOCCOc1ccc(C2=C(c3ccc(OCCOCCOCCOC)cc3)C3(C)C(=O)C2(C)C2C(=O)N(c4ccc(OCCOCCOCCOC)cc4)C(=O)C23Br)cc1` (stereo not drawn) [oCOm-15, 3a-Bromo-3a,4,7,7a-tetrahydro-4,7-dimethyl-2,5,6-tri-(4-(2-(2-(2-methoxyethoxy)ethoxy)ethoxy)phenyl)-4,7-methano-1H-isoindole-1,3,8(2H)-trione], the “release of CO” value was “releases CO forming BP-15”.

With `CC(=O)OC[C@H]1O[C@@H](Oc2ccc(N3C(=O)C4C5(C)C(=O)C(C)(C(c6ccccc6)=C5c5ccccc5)C4(Br)C3=O)cc2)[C@H](OC(C)=O)[C@@H](OC(C)=O)[C@@H]1OC(C)=O` (stereo partly drawn) [oCOm-14, 3a-Bromo-3a,4,7,7a-tetrahydro-4,7-dimethyl-2-(4-(2,3,4,6-tetra-O-acetyl-β-D-glucopyranosyloxy)phenyl)-5,6-diphenyl-4,7-methano-1H-isoindole-1,3,8(2H)-trione], the “release of CO” value was “releases CO forming BP-14”.

Turning to `CC(C)(C)OC(=O)NCCNC(=O)CCN1C(=O)C2C(Br)(C1=O)[C@]1(C)C(=O)[C@@]2(C)C(c2ccccc2)=C1c1ccccc1` (stereo partly drawn) [oCOm-18, Tert-Butyl (2-(3-((4S,7R)-3a-bromo-4,7-dimethyl-1,3,8-trioxo-5,6-diphenyl-3a,4,7,7a-tetrahydro-1H-4,7-methanoisoindol-2(2H)-yl)propanamido)ethyl)carbamate], the “release of CO” value is given as “releases CO forming BP-18”. Turning to `CC12C(=O)C(C)(C(c3ccccc3)=C1c1ccccc1)C1(I)C(=O)N(c3ccccc3)C(=O)C21` (stereo not drawn) [oCOm-3, 3a-Iodo-3a,4,7,7a-tetrahydro-4,7-dimethyl-2,5,6-triphenyl-4,7-methano-1H-isoindole-1,3,8(2H)-trione], the “release of CO” value is recorded as “release carbon monoxide”. Turning to `CC(=O)OCCN1C(=O)C2C3(C)C(=O)C(C)(C(c4ccccc4)=C3c3ccccc3)C2(Br)C1=O` (stereo not drawn) [oCOm-16, 3a-Bromo-3a,4,7,7a-tetrahydro-4,7-dimethyl-2-(2-acetoxyethyl)-5,6-diphenyl-4,7-methano-1H-isoindole-1,3,8(2H)-trione], the “release of CO” value is given as “releases CO forming BP-16”. As for `CC12C(=O)C(C)(C(c3ccccc3)=C1c1ccccc1)C1(S(=O)(=O)c3ccccc3)C(=O)N(c3ccccc3)C(=O)C21` (stereo not drawn) [oCOm-6, 3a-Phenylsulfonyl-3a,4,7,7a-tetrahydro-4,7-dimethyl-2,5,6-triphenyl-4,7-methano-1H-isoindole-1,3,8(2H)-trione], the “release of CO” value is “release carbon monoxide”. The same measure for `CC12C(=O)C(C)(C(c3ccccc3)=C1c1ccccc1)C1(Br)C(=O)N(CCC(=O)ON3C(=O)CCC3=O)C(=O)C21` (stereo not drawn) [oCOm-17, 2,5-Dioxopyrrolidin-1-yl 3-(3a-bromo-4,7-dimethyl-1,3,8-trioxo-5,6-diphenyl-1,3,3a,4,7,7a-hexahydro-2H-4,7-methanoisoindol-2-yl)propanoate]: “releases CO forming BP-17”. For `CC12C(=O)C(C)(C(c3ccccc3)=C1c1ccccc1)C1(Br)C(=O)N(c3ccc(O)cc3)C(=O)C21` (stereo not drawn) [oCOm-8, 3a-Bromo-3a,4,7,7a-tetrahydro-4,7-dimethyl-2-(4-hydroxyphenyl)-5,6-diphenyl-4,7-methano-1H-isoindole-1,3,8(2H)-trione] the value was “release carbon monoxide; also recorded: releases CO forming BP-8”. Consider `CC12C(=O)C(C)(C(c3ccccc3)=C1c1ccccc1)C1(Br)C(=O)NC(=O)C21` (stereo not drawn) [oCOm-7, 3a-Bromo-4,7-dimethyl-5,6-diphenyl-3a,4,7,7a-tetrahydro-1H-4,7-methanoisoindole-1,3,8(2H)-trione], for which the “release of CO” value was “release carbon monoxide”. The same measure for `CC12C(=O)C(C)(C(c3ccccc3)=C1c1ccccc1)C1(Cl)C(=O)N(c3ccccc3)C(=O)C21` (stereo not drawn) [oCOm-2, 3a-Chloro-3a,4,7,7a-tetrahydro-4,7-dimethyl-2,5,6-triphenyl-4,7-methano-1H-isoindole-1,3,8(2H)-trione]: “release carbon monoxide”; for `CC12C(=O)C(C)(C(c3ccccc3)=C1c1ccccc1)C1(Br)C(=O)N(CCNCCN)C(=O)C21` (stereo not drawn) [oCOm-23, 2-(2-(2-Aminoethyl)aminoethyl)-3a-bromo-3a,4,7,7a-tetrahydro-4,7-dimethyl-5,6-diphenyl-4,7-methano-1H-isoindole-1,3,8(2H)-trione bis-trifluoroacetate Salt]: “releases CO forming BP-23”. Turning to `CC12C(=O)C(C)(C(c3ccccc3)=C1c1ccccc1)C1(Br)C(=O)N(c3ccc(O)c([N+](=O)[O-])c3)C(=O)C21` (stereo not drawn) [oCOm-11, 3a-Bromo-3a,4,7,7a-tetrahydro-4,7-dimethyl-2-(4-hydroxy-3-nitrophenyl)-5,6-diphenyl-4,7-methano-1H-isoindole-1,3,8(2H)-trione], the “release of CO” value is “releases CO forming BP-11”.

Turning to `CC12C(=O)C(C)(C(c3ccccc3)=C1c1ccccc1)C1(Sc3ccccc3)C(=O)N(c3ccccc3)C(=O)C21` (stereo not drawn) [oCOm-4, 3a-Phenylthio-3a,4,7,7a-tetrahydro-4,7-dimethyl-2,5,6-triphenyl-4,7-methano-1H-isoindole-1,3,8(2H)-trione], the “release of CO” value is listed as “release carbon monoxide”. Take `CC12C(=O)C(C)(C(c3ccccc3)=C1c1ccccc1)C1(Br)C(=O)N(c3ccc4c(c3)OCO4)C(=O)C21` (stereo not drawn) [oCOm-9, 3a-Bromo-3a,4,7,7a-tetrahydro-4,7-dimethyl-5,6-diphenyl-2-tri-(3,4-methylenedioxyphenyl)-4,7-methano-1H-isoindole-1,3,8(2H)-trione]: the “release of CO” value was “releases CO forming BP-9”. The same measure for `CC(C)(C)OC(=O)NCCN1C(=O)C2C3(C)C(=O)C(C)(C(c4ccccc4)=C3c3ccccc3)C2(Br)C1=O` (stereo not drawn) [oCOm-20, Tert-Butyl (2-(3a-bromo-4,7-dimethyl-1,3,8-trioxo-5,6-diphenyl-3a,4,7,7a-tetrahydro-2H-4,7-methanoisoindol-2-yl)ethyl)carbamate]: “releases CO forming BP-20”; for `CC12C(=O)C(C)(C(c3ccccc3)=C1c1ccccc1)C1(Br)C(=O)N(c3ccccc3)C(=O)C21` (stereo not drawn) [oCOm-1, 3a-Bromo-3a,4,7,7a-tetrahydro-4,7-dimethyl-2,5,6-triphenyl-4,7-methano-1H-isoindole-1,3,8(2H)-trione]: “release carbon monoxide”; for `CC(C)(C)OC(=O)NCCN(CCN1C(=O)C2C3(C)C(=O)C(C)(C(c4ccccc4)=C3c3ccccc3)C2(Br)C1=O)C(=O)OC(C)(C)C` (stereo not drawn) [oCOm-22, Tert-Butyl (2-(3a-bromo-4,7-dimethyl-1,3,8-trioxo-5,6-diphenyl-3a,4,7,7a-tetrahydro-1H-4,7-methanoisoindol-2(2H)-yl)ethyl)(2-((tert-butoxycarbonyl)amino)ethyl)carbamate]: “releases CO forming BP-22”. For `CC12C(=O)C(C)(C(c3ccccc3)=C1c1ccccc1)C1(Br)C(=O)N(CCC(=O)NC(CO)(CO)CO)C(=O)C21` (stereo not drawn) [oCOm-24, N-(2-Hydroxy-1,1-bis(hydroxymethyl)ethyl)-3-(3a-bromo-4,7-dimethyl-1,3,8-trioxo-5,6-diphenyl-3a,4,7,7a-tetrahydro-1H-4,7-methanoisoindol-2(2H)-yl)propanamide] the value was “releases CO forming BP-24”; for `CC12C(=O)C(C)(C(c3ccccc3)=C1c1ccccc1)C1(Br)C(=O)N(c3ccc(O)c(O)c3)C(=O)C21` (stereo not drawn) [oCOm-10, 3a-Bromo-3a,4,7,7a-tetrahydro-4,7-dimethyl-2-(3,4-dihydroxyphenyl)-5,6-diphenyl-4,7-methano-1H-isoindole-1,3,8(2H)-trione], “releases CO forming BP-10”. For `CC12C(=O)C(C)(C(c3ccccc3)=C1c1ccccc1)C1(Br)C(=O)N(CCC(=O)NCCN)C(=O)C21.Cl` (stereo not drawn) [oCOm-19, N-(2-Aminoethyl)-3-(3a-bromo-4,7-dimethyl-1,3,8-trioxo-5,6-diphenyl-3a,4,7,7a-tetrahydro-1H-4,7-methanoisoindol-2(2H)-yl)propanamide hydrochloride] the value was “releases CO forming BP-19”.
